Data reported in US20130331333A1 (HADASIT MEDICAL RESEARCH SERVICES AND DEVELOPMENT, published 2013).
No constants are given. Whether binding was seen depends on the method and setting. For part of these data: In cells and extracts the contact can be indirect. Some entries that bind do so weakly or less than the wild type. For part of these data: Where a sequence is shown, tags or fusion partners need not be part of it. One block for each molecule: values may come before it.

Sequences of proteins named here, by UniProt entry; tags and fusion partners are left off. A change or cut given only in a name is not applied to a line headed by its entry. Residues count along the entry.
UniProt P55085: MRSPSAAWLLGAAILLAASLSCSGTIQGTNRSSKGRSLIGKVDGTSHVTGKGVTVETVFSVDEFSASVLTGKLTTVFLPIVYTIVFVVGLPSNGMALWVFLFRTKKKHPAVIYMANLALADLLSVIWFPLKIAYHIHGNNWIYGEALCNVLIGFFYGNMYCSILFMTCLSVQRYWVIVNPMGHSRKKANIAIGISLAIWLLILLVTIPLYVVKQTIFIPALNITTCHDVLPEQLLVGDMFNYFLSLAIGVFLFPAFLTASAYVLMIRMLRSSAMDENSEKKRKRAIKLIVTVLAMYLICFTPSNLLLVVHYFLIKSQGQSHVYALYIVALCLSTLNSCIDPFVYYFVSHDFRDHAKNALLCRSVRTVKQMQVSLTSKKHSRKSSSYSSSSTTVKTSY
wild-type protease-activated receptor 2 (wt hPar2): residues 37-397 of P55085
GST-PAR2 C-tail wt: residues 348-397 of P55085
UniProt P31749: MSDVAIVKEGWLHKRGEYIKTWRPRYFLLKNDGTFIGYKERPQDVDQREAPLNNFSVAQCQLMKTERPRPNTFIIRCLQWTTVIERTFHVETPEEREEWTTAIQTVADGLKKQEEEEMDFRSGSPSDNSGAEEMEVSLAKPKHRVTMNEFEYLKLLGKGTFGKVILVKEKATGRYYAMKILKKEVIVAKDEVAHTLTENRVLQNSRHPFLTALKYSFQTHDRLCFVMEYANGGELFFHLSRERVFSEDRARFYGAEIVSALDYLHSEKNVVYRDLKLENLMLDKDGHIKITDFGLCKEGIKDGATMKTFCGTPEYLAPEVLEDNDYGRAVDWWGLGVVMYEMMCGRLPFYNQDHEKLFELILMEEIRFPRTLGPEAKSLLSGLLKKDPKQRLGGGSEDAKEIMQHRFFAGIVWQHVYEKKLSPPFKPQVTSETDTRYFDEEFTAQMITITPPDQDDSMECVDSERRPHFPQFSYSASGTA

Columns and labels:
[1] = molecular target: GST-PAR2 C-tail wt (human) (UniProt P55085); assay: HCT-116 cell lysates (lacking Etk/Bmx) applied on GST beads of PAR2-C-tail
[2] = molecular target: T1, wild-type human protease-activated receptor 1 (wt hPar1) (human) (UniProt P25116); assay: co-immunoprecipitation after PAR1 activation
T1 sequence (looked up): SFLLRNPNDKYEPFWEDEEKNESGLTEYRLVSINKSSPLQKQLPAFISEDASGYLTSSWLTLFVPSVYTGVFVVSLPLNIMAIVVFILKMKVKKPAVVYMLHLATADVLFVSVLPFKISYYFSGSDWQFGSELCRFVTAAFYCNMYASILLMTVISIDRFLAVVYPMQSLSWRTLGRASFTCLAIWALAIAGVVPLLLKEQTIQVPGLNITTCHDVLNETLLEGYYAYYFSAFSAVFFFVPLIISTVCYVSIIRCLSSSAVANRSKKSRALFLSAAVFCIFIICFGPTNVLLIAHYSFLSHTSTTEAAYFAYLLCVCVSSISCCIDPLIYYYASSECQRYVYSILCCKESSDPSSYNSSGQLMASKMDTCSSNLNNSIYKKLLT

[3] = molecular target: T2, HA-tagged wt hPar1 (human, UniProt P25116 42-425); assay: co-immunoprecipitation, HU cells transfected with wt hPar1
T2 construct: whole, on cells; Tested in lysates of transfected cells; also called HA-wt hPar1; HA-wthPar1; not shown: HA tag added downstream of the ATG start codon
T2 sequence (looked up): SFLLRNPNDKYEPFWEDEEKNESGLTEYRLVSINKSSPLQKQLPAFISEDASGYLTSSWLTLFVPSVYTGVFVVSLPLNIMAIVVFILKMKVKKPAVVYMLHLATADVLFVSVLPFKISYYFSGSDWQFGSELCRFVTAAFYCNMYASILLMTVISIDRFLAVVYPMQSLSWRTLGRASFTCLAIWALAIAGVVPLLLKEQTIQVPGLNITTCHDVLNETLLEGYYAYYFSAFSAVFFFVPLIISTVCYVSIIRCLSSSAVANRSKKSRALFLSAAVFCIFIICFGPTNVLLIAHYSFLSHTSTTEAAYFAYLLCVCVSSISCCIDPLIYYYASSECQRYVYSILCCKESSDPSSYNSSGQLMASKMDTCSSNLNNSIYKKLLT

[4] = molecular target: T3, GST-PAR1 C-tail (wt) (human) (UniProt P25116); assay: HCT-116 cell lysates (lacking Etk/Bmx) applied on GST beads of PAR1-C-tail
T3 sequence: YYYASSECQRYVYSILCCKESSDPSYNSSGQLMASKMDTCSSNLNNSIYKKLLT

[5] = molecular target: wild-type protease-activated receptor 2 (wt hPar2) (human) (UniProt P55085); assay: co-immunoprecipitation before and after SLIGKV activation
[6] = molecular target: T2, HA-tagged wt hPar1; assay: lysates of cells transfected with HA-tag-hPar1 applied on GST-PH-Akt
[7] = molecular target: T2, HA-tagged wt hPar1; assay: lysates with HA-PAR1 on GST PH-Akt
[8] = molecular target: wild-type protease-activated receptor 2 (wt hPar2) (human) (UniProt P55085); assay: cell lysates applied on GST immobilized PH-domain columns (PAR2)
[9] = molecular target: wild-type protease-activated receptor 2 (wt hPar2) (human) (UniProt P55085); assay: cell lysates applied on GST immobilized PH-domain columns
[10] = molecular target: T4, purified wt PAR1 C-tail (cleaved from GST-C-tail with thrombin) (human); assay: purified C-tail re-applied on GST-Etk-PH domain column
T4 sequence: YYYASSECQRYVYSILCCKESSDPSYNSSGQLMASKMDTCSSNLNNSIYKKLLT

[11] = molecular target: T4, purified wt PAR1 C-tail (cleaved from GST-C-tail with thrombin) (human); assay: purified C-tail fragments applied on GST-PH Etk/Bmx column, anti-PAR1 blot
[12] = molecular target: wild-type protease-activated receptor 2 (wt hPar2) (human) (UniProt P55085); assay: co-immunoprecipitation, MCF7 cells transfected with hPar2 and Etk/Bmx
[13] = molecular target: T3, GST-PAR1 C-tail (wt) (human); assay: cell lysates applied on GST beads of PAR1-C-tail
[14] = molecular target: T3, GST-PAR1 C-tail (wt) (human); assay: HEK293 lysates on GST-PAR1-C-tail columns, anti-Etk/Bmx blot
[15] = molecular target: GST-PAR2C-tail K356Z (printed K3356Z and K365Z) (human) (UniProt P55085); assay: Etk/Bmx expressing cell lysates on truncated GST-PAR2 C-tails
[16] = molecular target: T2, HA-tagged wt hPar1; assay: co-immunoprecipitation with anti-HA, anti-Bmx blot, MCF7 clones after PAR1 activation
[17] = molecular target: wild-type protease-activated receptor 2 (wt hPar2) (human) (UniProt P55085); assay: co-immunoprecipitation before and after SLIGKV activation, HEK-293T cells transfected with hPar2 and T7-tagged Etk/Bmx

Molecule: Akt (PKB) (from UniProt P31749 1-480) (enzyme)
binding [1]: binds
binding [2]: binds
binding [3]: binds
binding [4]: binds
binding [5]: binds

B2: Etk/Bmx (epithelial tyrosine kinase), wild type (enzyme, UniProt P51813 1-675, looked up)
chain: MDTKSILEELLLKRSQQKKKMSPNNYKERLFVLTKTNLSYYEYDKMKRGSRKGSIEIKKIRCVEKVNLEEQTPVERQYPFQIVYKDGLLYVYASNEESRSQWLKALQKEIRGNPHLLVKYHSGFFVDGKFLCCQQSCKAAPGCTLWEAYANLHTAVNEEKHRVPTFPDRVLKIPRAVPVLKMDAPSSSTTLAQYDNESKKNYGSQPPSSSTSLAQYDSNSKKIYGSQPNFNMQYIPREDFPDWWQVRKLKSSSSSEDVASSNQKERNVNHTTSKISWEFPESSSSEEEENLDDYDWFAGNISRSQSEQLLRQKGKEGAFMVRNSSQVGMYTVSLFSKAVNDKKGTVKHYHVHTNAENKLYLAENYCFDSIPKLIHYHQHNSAGMITRLRHPVSTKANKVPDSVSLGNGIWELKREEITLLKELGSGQFGVVQLGKWKGQYDVAVKMIKEGSMSEDEFFQEAQTMMKLSHPKLVKFYGVCSKEYPIYIVTEYISNGCLLNYLRSHGKGLEPSQLLEMCYDVCEGMAFLESHQFIHRDLAARNCLVDRDLCVKVSDFGMTRYVLDDQYVSSVGTKFPVKWSAPEVFHYFKYSSKSDVWAFGILMWEVFSLGKQPYDLYDNSQVVLKVSQGHRLYRPHLASDTIYQIMYSCWHELPEKRPTFQQLLSSIEPLREKDKH
binding [12]: binds
binding [13]: binds
binding [14]: binds
binding [15]: binds
binding [16]: binds

B3: T7-tagged Etk/Bmx (enzyme, UniProt P51813 1-675, looked up, not shown: small tags and cut ends)
chain: MDTKSILEELLLKRSQQKKKMSPNNYKERLFVLTKTNLSYYEYDKMKRGSRKGSIEIKKIRCVEKVNLEEQTPVERQYPFQIVYKDGLLYVYASNEESRSQWLKALQKEIRGNPHLLVKYHSGFFVDGKFLCCQQSCKAAPGCTLWEAYANLHTAVNEEKHRVPTFPDRVLKIPRAVPVLKMDAPSSSTTLAQYDNESKKNYGSQPPSSSTSLAQYDSNSKKIYGSQPNFNMQYIPREDFPDWWQVRKLKSSSSSEDVASSNQKERNVNHTTSKISWEFPESSSSEEEENLDDYDWFAGNISRSQSEQLLRQKGKEGAFMVRNSSQVGMYTVSLFSKAVNDKKGTVKHYHVHTNAENKLYLAENYCFDSIPKLIHYHQHNSAGMITRLRHPVSTKANKVPDSVSLGNGIWELKREEITLLKELGSGQFGVVQLGKWKGQYDVAVKMIKEGSMSEDEFFQEAQTMMKLSHPKLVKFYGVCSKEYPIYIVTEYISNGCLLNYLRSHGKGLEPSQLLEMCYDVCEGMAFLESHQFIHRDLAARNCLVDRDLCVKVSDFGMTRYVLDDQYVSSVGTKFPVKWSAPEVFHYFKYSSKSDVWAFGILMWEVFSLGKQPYDLYDNSQVVLKVSQGHRLYRPHLASDTIYQIMYSCWHELPEKRPTFQQLLSSIEPLREKDKH
binding [17]: binds

The remaining lines, values ahead:

binding [6]: binds
binding [7]: binds
binding [8]: binds
binding [9]: binds
Molecule: GST-PH-Akt (from UniProt P31749 1-123)

binding [10]: binds
binding [11]: binds
B1: GST-PH-Etk/Bmx (other, UniProt P51813 1-111, looked up)
chain: MDTKSILEELLLKRSQQKKKMSPNNYKERLFVLTKTNLSYYEYDKMKRGSRKGSIEIKKIRCVEKVNLEEQTPVERQYPFQIVYKDGLLYVYASNEESRSQWLKALQKEIR
notes: domain: PH domain; Made as in Chen et al. 2001; also called GST-Etk-PH; GST-Etk/Bmx; not shown: GST tag

binding [14]: binds
B4: kinase-inactive Etk/Bmx (KQ) (enzyme, UniProt P51813 1-675, looked up)
chain: MDTKSILEELLLKRSQQKKKMSPNNYKERLFVLTKTNLSYYEYDKMKRGSRKGSIEIKKIRCVEKVNLEEQTPVERQYPFQIVYKDGLLYVYASNEESRSQWLKALQKEIRGNPHLLVKYHSGFFVDGKFLCCQQSCKAAPGCTLWEAYANLHTAVNEEKHRVPTFPDRVLKIPRAVPVLKMDAPSSSTTLAQYDNESKKNYGSQPPSSSTSLAQYDSNSKKIYGSQPNFNMQYIPREDFPDWWQVRKLKSSSSSEDVASSNQKERNVNHTTSKISWEFPESSSSEEEENLDDYDWFAGNISRSQSEQLLRQKGKEGAFMVRNSSQVGMYTVSLFSKAVNDKKGTVKHYHVHTNAENKLYLAENYCFDSIPKLIHYHQHNSAGMITRLRHPVSTKANKVPDSVSLGNGIWELKREEITLLKELGSGQFGVVQLGKWKGQYDVAVQMIKEGSMSEDEFFQEAQTMMKLSHPKLVKFYGVCSKEYPIYIVTEYISNGCLLNYLRSHGKGLEPSQLLEMCYDVCEGMAFLESHQFIHRDLAARNCLVDRDLCVKVSDFGMTRYVLDDQYVSSVGTKFPVKWSAPEVFHYFKYSSKSDVWAFGILMWEVFSLGKQPYDLYDNSQVVLKVSQGHRLYRPHLASDTIYQIMYSCWHELPEKRPTFQQLLSSIEPLREKDKH
